Measurements from patent US20200129535A1, “DESMOCOLLIN 1 INHIBITORS FOR THE PREVENTION OR TREATMENT OF ATHEROSCLEROSIS” (priority 2017, published 2020).
At least one compound was matched to its structure with a doubt left.

System: Primary human skin fibroblasts
Assay: apoA-I-mediated cholesterol efflux study (promotion of HDL biogenesis) with compounds
Type: cell-based
Details: FIG. 17; for effect on apoA-I-mediated cholesterol efflux: compared with the group treated with apoA-I alone; for potency rank in promoting HDL biogenesis among the 3 most active compounds: dose-response curves
Description: FIGS. 17(A) to 17(C) show rutin (A), acarbose (B) and docetaxel (C) can promote apoA-I-mediated cholesterol efflux. Primary human skin fibroblasts were labelled with 0.2 μCi/ml of [^3H]-cholesterol during growth, loaded with 30 μg/ml of unlabeled cholesterol for 24 h, equilibrated for 24 h, and treated with 5 μg/ml of apoA-I for 24 h to determine efflux of cellular cholesterol by apoA-I. The indicated concentrations of rutin, acarbose and docetaxel were added during the equilibration and apoA-I treatment period. Results are expressed as percentage of total (cell plus medium) [^3H]-sterol appearing in the medium. Values are the mean+SD of quadruplicate determinations. One-way analysis of variance with Dunnett's post-hoc correction was performed to calculate multiplicity-adjusted P values. *P<0.05; **P<0.001; ***P<0.0001 compared with the group treated with apoA-I alone.
To investigate the biological activity of the 51 compounds identified in Example 3 in modulating HDL biogenesis, we performed an apoA-I-mediated cholesterol efflux study as described previously (see Choi, H. Y. et al., J Biol Chem 278, 32569-32577 (2003)).

| Structure (SMILES) | effect on apoA-I-mediated cholesterol efflux | potency rank in promoting HDL biogenesis among the 3 most active compounds | potency rank in promoting HDL biogenesis among the 3 most active compounds (listed as Rutin) |
| --- | --- | --- | --- |
| C[C@H]1O[C@H](O[C@H]2[C@H](O)[C@@H](O)[C@@H](O[C@H]3[C@H](O)[C@@H](O)C(O)O[C@@H]3CO)O[C@@H]2CO)[C@H](O)[C@@H](O)[C@@H]1N[C@H]1C=C(CO)[C@@H](O)[C@H](O)[C@H]1O (stereo partly shown) [No. 2, Acarbose] | promote | second most potent | – |
| C[C@@H]1O[C@@H](OC[C@H]2O[C@@H](Oc3c(-c4ccc(O)c(O)c4)oc4cc(O)cc(O)c4c3=O)[C@H](O)[C@@H](O)[C@@H]2O)[C@H](O)[C@H](O)[C@H]1O [No. 8, Rutin] | promote | – | third most potent |
